Values from PubChem BioAssay AID1224830 (NIAID, 2016).

Assay: 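Host factors that control LPS-induced TNF expression in human macrophages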 (primary screen)
Cell system: human THP-1 monocytic leukaemia cells, TNF dual-luciferase reporter clone, PMA-differentiated to macrophage-like cells
Reagents: siRNA pool against human genes, 50 nM
Duration: LPS for 4 h, given about 3 days after siRNA transfection
Conditions: bacterial LPS (TLR4 ligand), 10 ng/ml
Detection: 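Ratio of firefly to renilla light, scaled to the plate median and expressed as a robust z-score per replicate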
Direction: TNF reporter robust z-score: higher = stronger TNF reporter response to LPS
Active means: 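Each well counts as active if its z-score is over 2.8 or under -1.5; controls are left without a call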
The deposit covers about 18,000 reagents; shown is a part drawn at random. In the full data, about 2,900 (16%) got an active call. 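Calls are made per well; low scores hint the gene aids the LPS response, high scores that it dampens it.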 Unmarked entries are inactive. Repeated entries: four replicate wells of each siRNA pool.

For ZNF555 (GeneID 148254), what does the deposit list?
TNF reporter robust z-score: -0.33

What did the screen give for ZNF555 (GeneID 148254)?
TNF reporter robust z-score: 0.57

What did the screen give for ZNF555 (GeneID 148254)?
TNF reporter robust z-score: -0.62

What did the screen give for ZNF555 (GeneID 148254)?
TNF reporter robust z-score: -0.14

For IZUMO1R (GeneID 390243), how do the results read?
TNF reporter robust z-score: -0.12

What is on record for IZUMO1R (GeneID 390243)?
TNF reporter robust z-score: -0.17

What is on record for IZUMO1R (GeneID 390243)?
TNF reporter robust z-score: 0.42

For IZUMO1R (GeneID 390243), what does the deposit list?
TNF reporter robust z-score: 0.95

With HADHB (GeneID 3032), what was measured?
TNF reporter robust z-score: -0.39

For HADHB (GeneID 3032), what was measured?
TNF reporter robust z-score: -0.91

With HADHB (GeneID 3032), how do the results read?
TNF reporter robust z-score: -1.24

What is on record for HADHB (GeneID 3032)?
TNF reporter robust z-score: -0.4

What is on record for CCDC38 (GeneID 120935)?
TNF reporter robust z-score: -0.29

How did the screen score CCDC38 (GeneID 120935)?
TNF reporter robust z-score: 0.57

For CCDC38 (GeneID 120935), what does the deposit list?
TNF reporter robust z-score: -0.83

With ATG2B (GeneID 55102), how do the results read?
TNF reporter robust z-score: -0.24

For ATG2B (GeneID 55102), how do the results read?
TNF reporter robust z-score: -0.01

With ATG2B (GeneID 55102), how do the results read?
TNF reporter robust z-score: -1.35

How did the screen score ATG2B (GeneID 55102)?
TNF reporter robust z-score: 1.01

For EIF4B (GeneID 1975), how do the results read?
TNF reporter robust z-score: -1.07

What is on record for EIF4B (GeneID 1975)?
TNF reporter robust z-score: -0.78

What is on record for EIF4B (GeneID 1975)?
TNF reporter robust z-score: -0.83

With EIF4B (GeneID 1975), what does the deposit list?
TNF reporter robust z-score: -0.8

For SMYD2 (GeneID 56950), what does the deposit list?
TNF reporter robust z-score: -0.32

Which result is listed for SMYD2 (GeneID 56950)?
TNF reporter robust z-score: -0.02

For SMYD2 (GeneID 56950), what was measured?
TNF reporter robust z-score: -0.11

For SMYD2 (GeneID 56950), what was measured?
TNF reporter robust z-score: 0.32

With OR8U3 (GeneID 219479), what was measured?
TNF reporter robust z-score: 1.23

How did the screen score OR8U3 (GeneID 219479)?
TNF reporter robust z-score: 3.46 (active)

Which result is listed for OR8U3 (GeneID 219479)?
TNF reporter robust z-score: 0.09

What is on record for OR8U3 (GeneID 219479)?
TNF reporter robust z-score: 1.34

Which result is listed for PALMD (GeneID 54873)?
TNF reporter robust z-score: -0.91

Which result is listed for PALMD (GeneID 54873)?
TNF reporter robust z-score: 0.4

Which result is listed for PALMD (GeneID 54873)?
TNF reporter robust z-score: 0.14

What is on record for PALMD (GeneID 54873)?
TNF reporter robust z-score: 0.84

Which result is listed for KRTAP5-11 (GeneID 440051)?
TNF reporter robust z-score: 0.68

For KRTAP5-11 (GeneID 440051), what does the deposit list?
TNF reporter robust z-score: 0.27

What is on record for KRTAP5-11 (GeneID 440051)?
TNF reporter robust z-score: 0.54

With KRTAP5-11 (GeneID 440051), what does the deposit list?
TNF reporter robust z-score: 1.07

With KRTAP15-1 (GeneID 254950), how do the results read?
TNF reporter robust z-score: 0.33

For KRTAP15-1 (GeneID 254950), what does the deposit list?
TNF reporter robust z-score: 0.51

What did the screen give for KRTAP15-1 (GeneID 254950)?
TNF reporter robust z-score: 0.38

Which result is listed for KRTAP15-1 (GeneID 254950)?
TNF reporter robust z-score: 0.56

For PCDHGC4 (GeneID 56098), what was measured?
TNF reporter robust z-score: -0.19

For PCDHGC4 (GeneID 56098), what was measured?
TNF reporter robust z-score: 1.26

What is on record for PCDHGC4 (GeneID 56098)?
TNF reporter robust z-score: 0.74

For PCDHGC4 (GeneID 56098), how do the results read?
TNF reporter robust z-score: 1.54
